No constants are given. Whether binding was seen depends on the method and setting. In cells and extracts the contact can be indirect. Some entries that bind do so weakly or less than the wild type.
Legend:
[1] = molecular target: T1, Chk1 (human (endogenous in primary CD4+ T cells)) (UniProt O14757); assay: co-IP; Chk1 antibody (E250, Abcam) on Protein G beads, incubated overnight at 4 °C with RIPA lysates of CD27/CD45RA defined CD4+ T cell subsets; western blot for GATA3 and PGC1α
T1 sequence: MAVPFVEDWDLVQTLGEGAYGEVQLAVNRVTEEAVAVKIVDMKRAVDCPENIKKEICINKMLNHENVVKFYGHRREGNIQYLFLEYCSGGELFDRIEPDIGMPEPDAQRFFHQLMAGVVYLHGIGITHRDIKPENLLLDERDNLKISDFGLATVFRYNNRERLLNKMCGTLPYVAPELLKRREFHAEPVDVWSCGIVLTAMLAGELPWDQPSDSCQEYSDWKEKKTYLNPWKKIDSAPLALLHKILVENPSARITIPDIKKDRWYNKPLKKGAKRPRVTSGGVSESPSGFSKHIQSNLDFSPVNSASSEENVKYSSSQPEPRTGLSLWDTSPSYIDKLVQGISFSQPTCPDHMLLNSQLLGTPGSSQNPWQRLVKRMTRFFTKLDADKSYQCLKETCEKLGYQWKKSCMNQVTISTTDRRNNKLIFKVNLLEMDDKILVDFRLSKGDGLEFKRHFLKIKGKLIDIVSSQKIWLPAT

Amino acid sequences for entries named in this document (tags omitted).
UniProt Q13535: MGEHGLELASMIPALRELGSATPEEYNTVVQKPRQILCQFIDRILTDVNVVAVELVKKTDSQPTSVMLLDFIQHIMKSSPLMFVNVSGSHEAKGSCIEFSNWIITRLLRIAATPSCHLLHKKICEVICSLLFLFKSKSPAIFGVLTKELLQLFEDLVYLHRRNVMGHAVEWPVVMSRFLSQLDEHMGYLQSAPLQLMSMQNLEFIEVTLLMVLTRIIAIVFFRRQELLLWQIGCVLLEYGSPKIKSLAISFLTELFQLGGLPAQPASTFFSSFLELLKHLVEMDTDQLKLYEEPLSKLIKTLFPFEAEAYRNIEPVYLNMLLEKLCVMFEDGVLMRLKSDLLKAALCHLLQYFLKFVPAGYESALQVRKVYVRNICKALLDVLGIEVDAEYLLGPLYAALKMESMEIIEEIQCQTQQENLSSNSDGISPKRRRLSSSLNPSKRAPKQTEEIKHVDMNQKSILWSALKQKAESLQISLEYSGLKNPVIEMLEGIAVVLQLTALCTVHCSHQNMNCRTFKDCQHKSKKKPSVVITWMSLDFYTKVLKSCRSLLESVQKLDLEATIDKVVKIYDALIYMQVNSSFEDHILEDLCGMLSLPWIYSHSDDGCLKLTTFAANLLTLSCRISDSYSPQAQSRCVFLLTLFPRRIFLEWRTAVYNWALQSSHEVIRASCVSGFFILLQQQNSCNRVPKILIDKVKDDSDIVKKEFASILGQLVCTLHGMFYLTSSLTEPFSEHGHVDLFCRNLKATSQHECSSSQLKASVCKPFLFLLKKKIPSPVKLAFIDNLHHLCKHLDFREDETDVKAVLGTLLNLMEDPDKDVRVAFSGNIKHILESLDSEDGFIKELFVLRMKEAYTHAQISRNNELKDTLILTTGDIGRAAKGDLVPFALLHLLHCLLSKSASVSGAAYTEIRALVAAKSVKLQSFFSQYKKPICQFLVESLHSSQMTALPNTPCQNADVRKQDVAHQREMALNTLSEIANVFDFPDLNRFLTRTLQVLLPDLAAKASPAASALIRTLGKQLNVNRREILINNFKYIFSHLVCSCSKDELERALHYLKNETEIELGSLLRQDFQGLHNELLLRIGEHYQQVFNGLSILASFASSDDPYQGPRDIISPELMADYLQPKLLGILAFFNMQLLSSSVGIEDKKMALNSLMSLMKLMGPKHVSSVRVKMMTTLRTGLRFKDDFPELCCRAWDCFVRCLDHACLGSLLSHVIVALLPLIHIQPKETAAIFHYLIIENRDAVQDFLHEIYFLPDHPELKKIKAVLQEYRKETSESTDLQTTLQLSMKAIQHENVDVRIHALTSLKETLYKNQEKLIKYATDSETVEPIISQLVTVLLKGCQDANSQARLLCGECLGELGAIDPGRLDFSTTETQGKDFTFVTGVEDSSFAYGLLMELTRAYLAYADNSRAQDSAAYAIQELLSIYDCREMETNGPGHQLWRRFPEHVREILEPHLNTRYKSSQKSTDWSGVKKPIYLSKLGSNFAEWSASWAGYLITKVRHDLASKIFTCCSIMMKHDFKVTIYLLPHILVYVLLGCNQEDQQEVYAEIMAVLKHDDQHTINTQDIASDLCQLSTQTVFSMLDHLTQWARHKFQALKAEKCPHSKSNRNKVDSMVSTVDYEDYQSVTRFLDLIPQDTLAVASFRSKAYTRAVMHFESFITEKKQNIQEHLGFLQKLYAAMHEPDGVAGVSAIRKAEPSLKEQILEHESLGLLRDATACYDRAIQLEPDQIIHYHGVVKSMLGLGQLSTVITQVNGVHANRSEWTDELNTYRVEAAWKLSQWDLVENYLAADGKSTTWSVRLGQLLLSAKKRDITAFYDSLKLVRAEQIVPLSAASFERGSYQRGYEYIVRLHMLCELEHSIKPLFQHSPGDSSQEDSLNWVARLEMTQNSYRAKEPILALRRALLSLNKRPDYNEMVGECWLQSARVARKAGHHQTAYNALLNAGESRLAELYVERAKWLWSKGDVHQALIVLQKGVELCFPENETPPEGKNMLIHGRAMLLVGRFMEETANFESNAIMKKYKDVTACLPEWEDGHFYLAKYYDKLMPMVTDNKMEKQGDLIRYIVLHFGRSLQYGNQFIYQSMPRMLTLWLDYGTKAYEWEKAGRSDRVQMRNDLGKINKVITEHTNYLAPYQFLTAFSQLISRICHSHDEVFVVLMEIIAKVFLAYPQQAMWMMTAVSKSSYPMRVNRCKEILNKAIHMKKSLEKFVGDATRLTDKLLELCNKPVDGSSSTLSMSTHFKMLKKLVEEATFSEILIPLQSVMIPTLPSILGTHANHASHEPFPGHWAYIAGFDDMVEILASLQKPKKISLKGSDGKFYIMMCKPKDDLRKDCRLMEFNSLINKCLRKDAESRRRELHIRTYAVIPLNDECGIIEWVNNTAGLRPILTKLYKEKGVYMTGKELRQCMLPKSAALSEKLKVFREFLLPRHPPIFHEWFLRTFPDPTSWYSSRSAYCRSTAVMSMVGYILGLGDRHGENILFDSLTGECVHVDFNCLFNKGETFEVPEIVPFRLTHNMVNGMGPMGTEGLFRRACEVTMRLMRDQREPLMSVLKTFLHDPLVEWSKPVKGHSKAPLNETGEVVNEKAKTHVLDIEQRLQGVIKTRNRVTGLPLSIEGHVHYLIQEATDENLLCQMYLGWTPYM
UniProt P23771: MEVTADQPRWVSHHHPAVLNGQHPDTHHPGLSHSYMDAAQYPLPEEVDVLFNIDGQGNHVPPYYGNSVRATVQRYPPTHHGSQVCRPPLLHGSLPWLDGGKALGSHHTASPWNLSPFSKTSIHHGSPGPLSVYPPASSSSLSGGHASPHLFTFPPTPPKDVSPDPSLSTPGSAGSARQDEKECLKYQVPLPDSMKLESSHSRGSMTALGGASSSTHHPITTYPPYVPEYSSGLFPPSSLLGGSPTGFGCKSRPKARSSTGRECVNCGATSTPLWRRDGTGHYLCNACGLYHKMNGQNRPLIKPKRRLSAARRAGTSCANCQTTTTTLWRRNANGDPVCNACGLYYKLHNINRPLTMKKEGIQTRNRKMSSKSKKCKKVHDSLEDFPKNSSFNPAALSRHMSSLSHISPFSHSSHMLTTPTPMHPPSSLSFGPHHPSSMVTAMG

[2] = molecular target: Serine/threonine-protein kinase ATR (ATR) (human (endogenous in primary CD4+ T cells)) (UniProt Q13535); assay: as above
[3] = molecular target: T2, peroxisome-proliferator-activated receptor γ coactivator-1α (PGC1α) (human (endogenous in primary CD4+ T cells)) (UniProt Q9UBK2); assay: co-IP; pull down of PGC1α after control or GATA3 siRNA knockdown; blot for ATR
T2 sequence: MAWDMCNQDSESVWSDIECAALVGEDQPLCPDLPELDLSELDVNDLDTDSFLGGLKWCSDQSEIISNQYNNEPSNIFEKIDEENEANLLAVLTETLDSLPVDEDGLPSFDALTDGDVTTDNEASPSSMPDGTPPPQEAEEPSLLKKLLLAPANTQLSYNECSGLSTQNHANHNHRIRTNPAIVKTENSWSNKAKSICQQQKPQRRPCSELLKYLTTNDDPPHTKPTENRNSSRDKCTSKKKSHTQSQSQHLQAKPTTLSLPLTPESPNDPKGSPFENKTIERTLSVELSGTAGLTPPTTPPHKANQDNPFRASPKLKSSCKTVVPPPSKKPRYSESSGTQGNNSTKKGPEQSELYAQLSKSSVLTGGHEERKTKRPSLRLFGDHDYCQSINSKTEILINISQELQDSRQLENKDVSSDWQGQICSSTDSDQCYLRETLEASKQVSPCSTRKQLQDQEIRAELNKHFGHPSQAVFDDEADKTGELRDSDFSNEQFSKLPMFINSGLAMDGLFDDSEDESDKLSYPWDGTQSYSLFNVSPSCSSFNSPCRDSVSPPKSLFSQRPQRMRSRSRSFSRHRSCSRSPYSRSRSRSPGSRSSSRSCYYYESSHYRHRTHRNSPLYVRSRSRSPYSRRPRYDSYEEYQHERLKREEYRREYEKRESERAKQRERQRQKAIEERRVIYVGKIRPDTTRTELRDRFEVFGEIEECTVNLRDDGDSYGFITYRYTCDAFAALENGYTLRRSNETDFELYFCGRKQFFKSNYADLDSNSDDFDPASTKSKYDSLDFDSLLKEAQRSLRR

GATA binding protein 3 (GATA3) (from UniProt P23771 1-443)
binding [1]: binds
binding [2]: binds

Serine/threonine-protein kinase ATR (ATR) (from UniProt Q13535 1-2644)
binding [3]: binds

Source: publication PMC8184923
